Results reported in PMC7819943, “Rice protein-binding microarrays: a tool to detect cis-acting elements near promoter regions in rice”.
The list shows a part of the results.

Target: T1, OsSMF1 (Oryza sativa, UniProt Q6ZLB0 1-436)
T1 sequence: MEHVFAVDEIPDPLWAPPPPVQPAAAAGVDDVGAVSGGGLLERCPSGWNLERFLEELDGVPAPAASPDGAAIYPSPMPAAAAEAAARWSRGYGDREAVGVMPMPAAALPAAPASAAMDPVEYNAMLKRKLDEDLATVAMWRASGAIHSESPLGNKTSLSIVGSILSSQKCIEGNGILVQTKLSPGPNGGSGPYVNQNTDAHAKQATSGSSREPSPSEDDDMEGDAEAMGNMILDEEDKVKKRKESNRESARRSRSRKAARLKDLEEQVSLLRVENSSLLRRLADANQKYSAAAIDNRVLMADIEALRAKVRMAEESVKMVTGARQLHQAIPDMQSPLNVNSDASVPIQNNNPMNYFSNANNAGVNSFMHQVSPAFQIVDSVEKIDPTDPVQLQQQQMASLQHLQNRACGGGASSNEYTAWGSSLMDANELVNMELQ
Assay: protein-binding microarray (RPBM); PBS, 2% BSA, 51.3 ng/ul salmon testes DNA, 50 uM zinc acetate, 200 nM TF, 25 C, 1 h; high values mean tight binding
Settings: protein: recombinant; tags: N-terminal polyhistidine and DsRed monomer fusion (pET32a); chain copies: 2; label: CyDye5-dUTP incorporated in the synthesized complementary strand; 3' TTTTT single-stranded linker to array surface; dsDNA, one strand shown
Outline: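 The binding signal is fluorescence intensity per feature, in arbitrary units, read on an Axon 4000B scanner. Polyhistidine- and DsRed-tagged transcription factors (N-terminal fusions) from E. coli BL21-CodonPlus were purified on Ni–NTA and applied at 200 nM for 1 h at 25 °C to a double-stranded, BSA-blocked custom Agilent array in buffer with 50 µM zinc acetate.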

| Sequence | binding signal |
| --- | --- |
| AAGGTCTCGCTCTCACTCACCGACGTCACCGTTCCTTTATCGGAGTCACCTAGTGCAG | 3550 fluorescence intensity (a.u.) |
| ATGCAATTTTGCCCAAGTAGCCCATAAAACCTCCGGACCACGGAGTCACCTAGTGCAG | 31700 fluorescence intensity (a.u.) |
| AGTACTGTAATAATTCTATTAACTTTCTTGTTCAGAATGCCGGAGTCACCTAGTGCAG | 3590 fluorescence intensity (a.u.) |
| TTTAATGTCTAAATTTAATAGTAGAGTCATACCTTCACCTCGGAGTCACCTAGTGCAG | 4010 fluorescence intensity (a.u.) |
| TGAAGAAGCTCCACCTCTTGGCGTTAATGACAATGACAGTCGGAGTCACCTAGTGCAG | 3490 fluorescence intensity (a.u.) |
| CCAGTCAACGCCACGACATTCGCACGGCTCGCCCAACTCCCGGAGTCACCTAGTGCAG | 5780 fluorescence intensity (a.u.) |
| ATTCTACCACATCACACACACACAAACACACACATATTCTCGGAGTCACCTAGTGCAG | 3520 fluorescence intensity (a.u.) |
| TGTCAGCCCACAGGAAAATTTGCTGCCATGCCGGCGTGCGCGGAGTCACCTAGTGCAG | 3460 fluorescence intensity (a.u.) |
| GCATATCGGCGCTCCCCGACGACCTCATCCAGCGCATCCTCGGAGTCACCTAGTGCAG | 3600 fluorescence intensity (a.u.) |
| ACTACCACTCAAGGGTCTTTACCGTGACGCCATCAGTCTGCGGAGTCACCTAGTGCAG | 7250 fluorescence intensity (a.u.) |
| AACTCCAATGCACGCCACGCCACGCCACAATTACAATTATCGGAGTCACCTAGTGCAG | 4100 fluorescence intensity (a.u.) |
| GAGGCCTCCTCGGGAGCTAAGCTTGTATGCGTGTGGCTCGCGGAGTCACCTAGTGCAG | 25500 fluorescence intensity (a.u.) |
| CGGCACGTGGATGTGCAGCCAGTGACGTACGTATAGTTATCGGAGTCACCTAGTGCAG | 3940 fluorescence intensity (a.u.) |
| CTGTCTTATACCGTTATACGCTGACGTCAGCAATAGTGTCCGGAGTCACCTAGTGCAG | 23000 fluorescence intensity (a.u.) |
| GTGTAAAGAAGACCCGGTCAATATCGCCACGTCAGCGAAACGGAGTCACCTAGTGCAG | 21400 fluorescence intensity (a.u.) |
| AGGCCTTGCTTCTCCCGTAGCTTACGTGTAAACGACGACCCGGAGTCACCTAGTGCAG | 18300 fluorescence intensity (a.u.) |
| CTCCCCTAACTATGTGCAGTGTCACTGACATGTGGGTCATCGGAGTCACCTAGTGCAG | 4110 fluorescence intensity (a.u.) |
| TCTGTAGTAGTCATCATCACCTAGGTGCCTACCCTTTTGACGGAGTCACCTAGTGCAG | 3280 fluorescence intensity (a.u.) |
| CTAAGGGTCTAAGAGATGATGCTGTGATGAGGTGGATCATCGGAGTCACCTAGTGCAG | 4840 fluorescence intensity (a.u.) |
| CCCTGCGCTGCCACGCGGCCGGCATCCGCCAAAGCAACAGCGGAGTCACCTAGTGCAG | 4880 fluorescence intensity (a.u.) |
| ATATGGCCCATTGACCTAGTCCAACCGCTAAGTCATCATTCGGAGTCACCTAGTGCAG | 22900 fluorescence intensity (a.u.) |

As a working copy, part of the list above.

| Sequence | binding signal |
| --- | --- |
| CCAGTCAACGCCACGACATTCGCACGGCTCGCCCAACTCCCGGAGTCACCTAGTGCAG | 5780 fluorescence intensity (a.u.) |
| ATTCTACCACATCACACACACACAAACACACACATATTCTCGGAGTCACCTAGTGCAG | 3520 fluorescence intensity (a.u.) |

Next part

| Sequence | binding signal |
| --- | --- |
| CCAAGCATTAATGACGCTTTAAATTACTACCCCTTCCGTGCGGAGTCACCTAGTGCAG | 3950 fluorescence intensity (a.u.) |
| CGATGGTGGCTCATGGAGAAAGAGGGGTGATGGCGGTGCGCGGAGTCACCTAGTGCAG | 3690 fluorescence intensity (a.u.) |
| CCATTTATAGGTGTGTGAGGTGTGGTGTGCATGTGTATTTCGGAGTCACCTAGTGCAG | 4440 fluorescence intensity (a.u.) |
| TGTGTTTATGTACGTGCGTAGGCAGGCGTGTTCGGCCGGACGGAGTCACCTAGTGCAG | 3400 fluorescence intensity (a.u.) |
| GCAGCCACGACGCCCGCCAATGCTGCCGCCGCCATCGATGCGGAGTCACCTAGTGCAG | 5300 fluorescence intensity (a.u.) |
| ACCAGCGAAAATCTATTTTCACTAGCGGTTGCTTACGTGGCGGAGTCACCTAGTGCAG | 22900 fluorescence intensity (a.u.) |
| TCAGAGCCGTTCAACCCCACGCGTGGACACAATCTGACCACGGAGTCACCTAGTGCAG | 3980 fluorescence intensity (a.u.) |
| AGTATATATATCGTCGTCGTCTCCGTCGACGACAAAACTGCGGAGTCACCTAGTGCAG | 3740 fluorescence intensity (a.u.) |
| GAAAAGGTGTATTGGATCATGCTTGAAGAATGATGACTATCGGAGTCACCTAGTGCAG | 3630 fluorescence intensity (a.u.) |
| GCAGCAATCTTGGTCTCTAGCTAGTTCTGTTCAATACTAGCGGAGTCACCTAGTGCAG | 3640 fluorescence intensity (a.u.) |
| AGCTCCCGAAAATATCTCTTGCTCGATATAAACGGGCCGGCGGAGTCACCTAGTGCAG | 4060 fluorescence intensity (a.u.) |
| GGCACACGCGAGGGCACCACTCCACGTCAAGGTATGGTCACGGAGTCACCTAGTGCAG | 9790 fluorescence intensity (a.u.) |
| GAACTGAAGGTTTCTGGAGGATGCGTCATGGTGATCTTAACGGAGTCACCTAGTGCAG | 4200 fluorescence intensity (a.u.) |
| ATCTGTGTGTATGTTTGTGGGTTTCTGTCCATTGAGATATCGGAGTCACCTAGTGCAG | 3280 fluorescence intensity (a.u.) |
| ATCCTGGGCCCAACTCGCCAATGTAAAGCCTTCTTTCTCGCGGAGTCACCTAGTGCAG | 3460 fluorescence intensity (a.u.) |
| GTGTTGGAGAGCTGCAGCGGCGAGGAGTTGCGCACCTGGCCGGAGTCACCTAGTGCAG | 19600 fluorescence intensity (a.u.) |
| GCAACCTCATCAGCGCTTGCTCGATGGATGACAGACGAGGCGGAGTCACCTAGTGCAG | 3400 fluorescence intensity (a.u.) |
| ATGGGCTGATTGGGCCAGATTACACGTGCGACGTATCTGTCGGAGTCACCTAGTGCAG | 5450 fluorescence intensity (a.u.) |
| GTAACACAGCCCTCGGCCACGTTTCAAACTTCCAGAGTTCCGGAGTCACCTAGTGCAG | 3520 fluorescence intensity (a.u.) |
| ATAGATCGATGGATCGATGGATCGCGGCCAGCTCAGATATCGGAGTCACCTAGTGCAG | 5840 fluorescence intensity (a.u.) |
| GTGAAGAAATGCAATTTACACTCTTGATGAATCATCTAAACGGAGTCACCTAGTGCAG | 4170 fluorescence intensity (a.u.) |
